For the test, the target named is T1, HA-tagged cMLCK (cardiac-specific myosin light chain kinase) expressed in transgenic mouse hearts (mouse) (UniProt Q3UIZ8).
T1 sequence: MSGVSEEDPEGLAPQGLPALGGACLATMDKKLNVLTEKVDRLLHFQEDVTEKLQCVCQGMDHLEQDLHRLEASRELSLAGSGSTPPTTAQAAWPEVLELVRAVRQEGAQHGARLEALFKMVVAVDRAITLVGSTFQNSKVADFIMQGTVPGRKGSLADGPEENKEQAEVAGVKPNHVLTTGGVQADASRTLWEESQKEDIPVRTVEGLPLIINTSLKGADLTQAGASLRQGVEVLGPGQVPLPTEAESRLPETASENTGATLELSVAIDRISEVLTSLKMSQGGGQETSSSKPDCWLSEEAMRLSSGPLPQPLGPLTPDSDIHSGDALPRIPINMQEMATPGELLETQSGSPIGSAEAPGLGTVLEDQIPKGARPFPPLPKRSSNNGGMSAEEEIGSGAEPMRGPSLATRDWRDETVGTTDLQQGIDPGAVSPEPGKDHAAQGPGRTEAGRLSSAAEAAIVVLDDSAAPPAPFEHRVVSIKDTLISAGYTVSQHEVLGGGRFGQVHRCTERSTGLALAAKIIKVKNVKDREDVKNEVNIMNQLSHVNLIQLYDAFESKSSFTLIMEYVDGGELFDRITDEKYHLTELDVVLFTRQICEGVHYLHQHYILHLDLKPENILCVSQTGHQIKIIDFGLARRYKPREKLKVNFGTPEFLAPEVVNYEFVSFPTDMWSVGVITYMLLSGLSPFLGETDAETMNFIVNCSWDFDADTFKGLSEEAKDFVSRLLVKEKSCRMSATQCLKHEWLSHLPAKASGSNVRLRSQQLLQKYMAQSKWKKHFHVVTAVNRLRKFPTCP
As to the kind of experiment: affinity purification with mass spectrometry; hearts of HA-cMLCK transgenic mice perfused with 1% formaldehyde for 10 min at room temperature; heart lysates immunoprecipitated with HA-agarose, in-gel trypsin digest, LC-MS/MS.

The chains behind the UniProt entries cited, without tags or fusion partners.
UniProt P50462: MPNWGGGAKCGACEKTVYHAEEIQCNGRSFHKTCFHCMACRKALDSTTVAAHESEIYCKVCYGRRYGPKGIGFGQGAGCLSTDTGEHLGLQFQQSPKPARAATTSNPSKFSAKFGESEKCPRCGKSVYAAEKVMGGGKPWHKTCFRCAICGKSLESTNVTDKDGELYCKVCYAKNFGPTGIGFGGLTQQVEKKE
UniProt Q9JI91: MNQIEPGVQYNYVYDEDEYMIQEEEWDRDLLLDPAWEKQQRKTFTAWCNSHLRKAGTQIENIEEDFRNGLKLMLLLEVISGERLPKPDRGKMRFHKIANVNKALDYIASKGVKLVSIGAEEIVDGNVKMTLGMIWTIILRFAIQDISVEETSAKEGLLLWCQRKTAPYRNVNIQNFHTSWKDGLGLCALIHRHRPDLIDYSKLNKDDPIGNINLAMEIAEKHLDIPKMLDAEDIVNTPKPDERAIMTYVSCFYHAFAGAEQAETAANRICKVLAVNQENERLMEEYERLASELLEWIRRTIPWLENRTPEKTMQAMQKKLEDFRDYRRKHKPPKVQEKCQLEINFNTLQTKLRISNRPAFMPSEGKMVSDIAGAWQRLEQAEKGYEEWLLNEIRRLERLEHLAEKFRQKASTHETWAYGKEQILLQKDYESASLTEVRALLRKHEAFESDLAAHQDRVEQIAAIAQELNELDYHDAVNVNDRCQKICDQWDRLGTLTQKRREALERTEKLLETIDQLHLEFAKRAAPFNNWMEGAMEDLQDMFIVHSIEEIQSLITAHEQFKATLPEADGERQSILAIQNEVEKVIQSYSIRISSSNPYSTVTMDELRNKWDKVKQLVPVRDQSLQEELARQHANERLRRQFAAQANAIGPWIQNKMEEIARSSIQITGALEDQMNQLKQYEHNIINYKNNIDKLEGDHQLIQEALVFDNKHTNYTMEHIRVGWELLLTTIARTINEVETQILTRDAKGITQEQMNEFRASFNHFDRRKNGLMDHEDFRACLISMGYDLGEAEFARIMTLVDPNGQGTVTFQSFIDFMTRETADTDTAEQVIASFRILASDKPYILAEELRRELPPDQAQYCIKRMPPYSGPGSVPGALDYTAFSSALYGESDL

Results are given in words; binding and its absence hold for the method and conditions named. In cells and extracts the contact can be indirect. Here binding means that the protein was enriched with, or labelled near, the bait; the list need not be complete. Sequences can lack the tags named with a protein.

Regarding “CSRP3 (cysteine and glycine rich protein 3, MLP), endogenous in mouse heart (from UniProt P50462 1-194)”, the binding entry is “binds”.

Turning to “α-actinin2, endogenous in mouse heart (from UniProt Q9JI91 1-894)”, the binding result was “binds”.

For the origin of these results see publication PMC6715661, “Cardiac MLC2 kinase is localized to the Z-disc and interacts with α-actinin2” (Scientific Reports, 2019).
